PubChem BioAssay AID720505 – Drosophila RNAi Screening Center, 2013
The deposit covers about 20,000 reagents; shown is a random part of those with a known target gene and a result. Of all reagents, about 2,100 (10%) were called active. 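Raw plate signals without normalisation; calls rest on control-based scores that were not deposited; replicate 2 separates called from uncalled poorly.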 The numbers tell different reagents against one gene apart. No sequences are given here. Not given: the amount of reagent, the time to read-out.

Test: 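Genes needed for store-operated calcium entry in fly cells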 (primary screen)
Cell system: Drosophila S2R+ cells
Reagent: long dsRNA against Drosophila genes
Treatment: thapsigargin (2 µM) in calcium-free buffer to empty internal stores, then 2 mM calcium added back
Detection: 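Fluo-4 signal in 384-well plates read on a FLIPR after thapsigargin (2 µM, calcium-free) store depletion and 2 mM calcium add-back; unnormalised mean endpoint per well; screen run twice, selected wells retested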
Scale: calcium signal: higher = more calcium entry after store depletion
Hit rule: 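Knock-downs counted as hits when calcium entry dropped relative to STIM1 positive and Rho1 negative controls present on each plate; roughly 1500 genes called, with reductions of differing size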
Calls: active = called as lowering calcium entry; inactive = not called

CG34354 #1 showed calcium signal, replicate 1 = 148; calcium signal, replicate 2 = 207; inactive. Silencing of CG34354 #2 resulted in: calcium signal, replicate 1 = 165; calcium signal, replicate 2 = 148; inactive. CG34354 #3 scored calcium signal, replicate 1 = 167; calcium signal, replicate 2 = 115; inactive. CG34354 #4 scored calcium signal, replicate 1 = 96.2; calcium signal, replicate 2 = 137; inactive. For Ced-12 the deposit lists calcium signal, replicate 1 = 111; calcium signal, replicate 2 = 143; inactive. After knock-down of CG8841 the results were calcium signal, replicate 1 = 182; calcium signal, replicate 2 = 157; inactive.

Ance-5 gave calcium signal, replicate 1 = 105; calcium signal, replicate 2 = 103; inactive. Depletion of stj (straightjacket) came out at: calcium signal, replicate 1 = 214; calcium signal, replicate 2 = 212; inactive. Knock-down of CG9449 resulted in: calcium signal, replicate 1 = 105; calcium signal, replicate 2 = 162; inactive. With knock-down of GstE13 (Glutathione S transferase E13), the screen gave calcium signal, replicate 1 = 180; calcium signal, replicate 2 = 149; inactive. For CG34384 #1 the deposit lists calcium signal, replicate 1 = 8624; calcium signal, replicate 2 = 195; inactive. CG34384 #2 gave calcium signal, replicate 1 = 125; calcium signal, replicate 2 = 152; inactive.

For CG34384 #3, the values are calcium signal, replicate 1 = 150; calcium signal, replicate 2 = 172; inactive. CG34384 #4 gave calcium signal, replicate 1 = 99.8; calcium signal, replicate 2 = 167; inactive.

Copied from the entries so far for reference:
Ced-12 | calcium signal, replicate 1: 111; calcium signal, replicate 2: 143; Call: inactive
CG8841 | calcium signal, replicate 1: 182; calcium signal, replicate 2: 157; Call: inactive
